The list shows a part of the results. Many values rest on one well or one pass, so single values are uncertain.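 Test system: a mixed pool of 41 HAP1 clones in which 61 cancer-associated proteins carry fluorescent tags inserted into introns, and each clone is identified from its image pattern. Read-outs are compared with DMSO-treated control wells. The BRD4 degrader dBET6 served as the positive control.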
Target: XPO1 (intron 15 mScarlet tag, HAP1) (UniProt O14980)
Assay: XPO1 fluorescence intensity change vs DMSO (log2 fold change); higher = more XPO1 protein
Conditions: 6 h

Sequences of proteins named here, by UniProt entry; tags and fusion partners are left off.
UniProt O14980, whole entry: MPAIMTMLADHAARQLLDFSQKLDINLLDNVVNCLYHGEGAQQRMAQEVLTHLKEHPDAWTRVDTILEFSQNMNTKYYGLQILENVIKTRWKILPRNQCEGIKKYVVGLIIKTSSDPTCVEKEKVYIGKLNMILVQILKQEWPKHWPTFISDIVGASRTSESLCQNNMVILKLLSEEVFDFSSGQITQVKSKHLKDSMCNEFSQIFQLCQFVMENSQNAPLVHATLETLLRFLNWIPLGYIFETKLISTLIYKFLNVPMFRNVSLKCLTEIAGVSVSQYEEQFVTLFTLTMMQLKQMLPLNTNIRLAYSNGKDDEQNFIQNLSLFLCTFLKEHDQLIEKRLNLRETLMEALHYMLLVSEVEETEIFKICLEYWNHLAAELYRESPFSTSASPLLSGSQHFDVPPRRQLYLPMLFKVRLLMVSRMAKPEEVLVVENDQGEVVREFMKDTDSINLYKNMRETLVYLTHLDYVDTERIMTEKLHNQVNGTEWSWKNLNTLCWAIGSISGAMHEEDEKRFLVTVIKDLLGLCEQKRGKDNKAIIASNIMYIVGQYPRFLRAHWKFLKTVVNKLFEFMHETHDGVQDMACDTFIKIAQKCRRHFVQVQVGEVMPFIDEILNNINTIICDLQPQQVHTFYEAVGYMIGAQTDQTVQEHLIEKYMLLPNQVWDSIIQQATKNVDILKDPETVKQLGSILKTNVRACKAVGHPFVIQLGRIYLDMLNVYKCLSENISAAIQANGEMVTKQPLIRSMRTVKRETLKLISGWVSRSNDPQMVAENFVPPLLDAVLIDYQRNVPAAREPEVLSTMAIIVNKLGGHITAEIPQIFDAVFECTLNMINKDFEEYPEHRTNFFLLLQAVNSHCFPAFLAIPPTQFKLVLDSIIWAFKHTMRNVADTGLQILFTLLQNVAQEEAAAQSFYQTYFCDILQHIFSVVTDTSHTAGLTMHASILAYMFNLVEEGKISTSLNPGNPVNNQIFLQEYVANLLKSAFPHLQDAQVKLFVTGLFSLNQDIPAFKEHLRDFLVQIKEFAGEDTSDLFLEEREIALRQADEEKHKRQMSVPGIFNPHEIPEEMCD

Structure (SMILES)	XPO1 fluorescence intensity change (log2)
Cc1ccc(-c2nc(C(=O)Nc3cccnc3N(C)C)cs2)o1 (10 µM)	-0.0556
NCC(CO)Cc1cccc(OC(F)(F)F)c1 (stereo not drawn) (10 µM)	-0.0466
O=C(NCCS(=O)(=O)c1ccccc1)c1cc2c(nc3sccn32)s1 (0.1 µM)	-0.0725
Clc1ccc(-c2csc3ncnc(Sc4nnnn4CC4CCCO4)c23)cc1 (stereo not drawn) (10 µM)	0.0273
O=C(c1ccccc1)N1c2ccccc2C=CC1c1c[nH]c2ccccc12 (stereo not drawn) (0.1 µM)	-0.0716
COc1cc(C(=O)c2c(-c3ccccc3)cc3ccccn23)cc(OC)c1OC (1 µM)	-0.133
c1ccc(-c2ccccc2OCc2ccc(-c3nnc4n3CCC4)cc2)cc1 (10 µM)	-0.0226
Cc1cnn(C(CCl)CN(Cc2nc3ccc(Cl)cc3c(=O)[nH]2)Cc2nc3ccc(Cl)cc3c(=O)[nH]2)c1 (stereo not drawn) (10 µM)	0.0399
Nc1nc(Cl)nc2c1ncn2[C@H]1C[C@H](O)[C@@H](CO)O1 [cladribine] (1 µM)	-0.312
Cc1[nH]c2ccccc2c1CN1CCC(Cc2ccccc2)CC1 (10 µM)	-0.11
O=C(Oc1c(CN2CCOCC2)cc(Cl)c2cccnc12)c1ccccc1 (10 µM)	0.256
COc1ccccc1Nc1nc(N)nc(CCl)n1 (1 µM)	-0.208
CS(=O)(=O)c1ccc(-n2nnnc2CCl)cc1 (0.1 µM)	0.0644
CCN(c1cc(-c2ccc(CN3CCOCC3)cc2)cc(C(=O)NCc2c(C)cc(C)[nH]c2=O)c1C)C1CCOCC1 (10 µM)	0.135
Nc1nc(CCl)nc2sc3c(c12)CCCC3 (10 µM)	-0.0653
CCCCn1c(CCl)nc2c1c(=O)[nH]c(=O)n2Cc1ccccc1 (1 µM)	0.00829
CC(C)(C)c1cc(NN)n2ncc(-c3ccccc3)c2n1 (10 µM)	0.209
CCOC(=O)Cc1csc(NC(=O)c2ccc(-n3cccc3)cc2)n1 (10 µM)	-0.0345
COc1ccc(C(=O)Nc2ncc(Cc3ccc(C)cc3)s2)cc1OC (10 µM)	-0.443
O=C(NCCc1ccccn1)Nc1ccc(-n2ccnn2)cc1 (10 µM)	0.151

Structure (SMILES)	XPO1 fluorescence intensity change (log2)
Cc1cc(C)c(C#N)c(NCc2ccc(Cn3ccnc3)cc2)n1 (1 µM)	-0.0149
COc1cc(C)c(S(=O)(=O)NCCc2c(C)[nH]c3ccc(C)cc23)cc1C (10 µM)	-0.203
CC1(C)CC(NCCc2cccc3cccnc23)c2ccccc2O1 (stereo not drawn) (0.1 µM)	-0.011
O=[N+]([O-])c1ccc(O)c2ncccc12 (10 µM)	-0.0768
O=C(/C=C/c1cccc(NC(=O)c2ccc(Cl)cc2)c1)c1ccc(O)c(CCCl)c1 (10 µM)	-0.382
Cn1c(=O)[nH]c(=O)c2c1nc(CN1CCN(Cc3ccccc3)CC1)n2Cc1ccc(Cl)cc1 (10 µM)	-0.0711
CCOC(=O)C1=C(CCl)NC(=O)NC1c1cccs1 (stereo not drawn) (10 µM)	-0.51
CC(=O)N(c1nc(/C=C/C(=O)c2ccc(O)c(CCCl)c2)cs1)c1cccc(C)c1C (10 µM)	0.0311
COc1ccc2c(c1)CCCN(C(=O)C(C)Sc1ccccn1)C2 (stereo not drawn) (10 µM)	-0.14
CCOC(=O)c1c(-c2ccccc2)oc2ccc(NS(=O)(=O)c3ccc(C)cc3)cc12 (10 µM)	0.0513
CC(=O)Nc1ccc(-c2csc(NC(=O)c3cnc4c(cnn4C(C)C)c3)n2)cc1 (10 µM)	0.0231
O=C1CN(C(=O)c2cc(Cl)sc2Cl)c2ccccc2N1 (10 µM)	0.00628
CN1C(=O)C(Cc2c[nH]c3ccccc23)NC1=S (stereo not drawn) [necrostatin-1] (1 µM)	0.0224
Nc1ncn([C@H]2C[C@H](O)[C@@H](CO)O2)c(=O)n1 [decitabine] (10 µM)	-0.121
Cc1cc(N2CCN(c3ccc(C(F)(F)F)cn3)CC2)nc(C(C)C)n1 (10 µM)	-0.0474
CCc1noc(CC)c1CNC(C)c1cnc2ccsc2c1 (stereo not drawn) (10 µM)	-0.0553
Cc1noc(C)c1CSc1nc2sccc2c(=O)n1-c1ccccc1 (1 µM)	-0.00146
CCOC(=O)C1=C(CCl)NC(=O)NC1c1ccccc1 (stereo not drawn) (1 µM)	0.0992
C=CCNC1=C2C[C@@H](C)C[C@H](OC)[C@H](O)[C@@H](C)/C=C(\C)[C@H](OC(N)=O)[C@@H](OC)/C=C\C=C(/C)C(=O)NC(=CC1=O)C2=O (10 µM)	-0.246

Target: BRD4 (intron 10 mScarlet tag, HAP1) (UniProt O60885)
Assay: BRD4 median nuclear fluorescence intensity change vs DMSO (log2 fold change); higher = more BRD4 protein
Conditions: 6 h

Structure (SMILES)	BRD4 median nuclear fluorescence intensity change (log2)
Cc1ccc(-c2nc(C(=O)Nc3cccnc3N(C)C)cs2)o1 (10 µM)	0.119
NCC(CO)Cc1cccc(OC(F)(F)F)c1 (stereo not drawn) (10 µM)	0.148
O=C(NCCS(=O)(=O)c1ccccc1)c1cc2c(nc3sccn32)s1 (0.1 µM)	0.0425
Clc1ccc(-c2csc3ncnc(Sc4nnnn4CC4CCCO4)c23)cc1 (stereo not drawn) (10 µM)	-0.0997
O=C(c1ccccc1)N1c2ccccc2C=CC1c1c[nH]c2ccccc12 (stereo not drawn) (0.1 µM)	0.072
COc1cc(C(=O)c2c(-c3ccccc3)cc3ccccn23)cc(OC)c1OC (1 µM)	-0.0139
c1ccc(-c2ccccc2OCc2ccc(-c3nnc4n3CCC4)cc2)cc1 (10 µM)	0.00121
Cc1cnn(C(CCl)CN(Cc2nc3ccc(Cl)cc3c(=O)[nH]2)Cc2nc3ccc(Cl)cc3c(=O)[nH]2)c1 (stereo not drawn) (10 µM)	-0.0107
Nc1nc(Cl)nc2c1ncn2[C@H]1C[C@H](O)[C@@H](CO)O1 [cladribine] (1 µM)	0.0281
Cc1[nH]c2ccccc2c1CN1CCC(Cc2ccccc2)CC1 (10 µM)	0.049
O=C(Oc1c(CN2CCOCC2)cc(Cl)c2cccnc12)c1ccccc1 (10 µM)	-0.0344
COc1ccccc1Nc1nc(N)nc(CCl)n1 (1 µM)	-0.00907
CS(=O)(=O)c1ccc(-n2nnnc2CCl)cc1 (0.1 µM)	0.00663
CCN(c1cc(-c2ccc(CN3CCOCC3)cc2)cc(C(=O)NCc2c(C)cc(C)[nH]c2=O)c1C)C1CCOCC1 (10 µM)	0.128
Nc1nc(CCl)nc2sc3c(c12)CCCC3 (10 µM)	0.0077
CCCCn1c(CCl)nc2c1c(=O)[nH]c(=O)n2Cc1ccccc1 (1 µM)	0.0436
CC(C)(C)c1cc(NN)n2ncc(-c3ccccc3)c2n1 (10 µM)	0.151
CCOC(=O)Cc1csc(NC(=O)c2ccc(-n3cccc3)cc2)n1 (10 µM)	0.00651
COc1ccc(C(=O)Nc2ncc(Cc3ccc(C)cc3)s2)cc1OC (10 µM)	-0.0583
O=C(NCCc1ccccn1)Nc1ccc(-n2ccnn2)cc1 (10 µM)	-0.0713

Structure (SMILES)	BRD4 median nuclear fluorescence intensity change (log2)
Cc1cc(C)c(C#N)c(NCc2ccc(Cn3ccnc3)cc2)n1 (1 µM)	-0.165
COc1cc(C)c(S(=O)(=O)NCCc2c(C)[nH]c3ccc(C)cc23)cc1C (10 µM)	0.135
CC1(C)CC(NCCc2cccc3cccnc23)c2ccccc2O1 (stereo not drawn) (0.1 µM)	0.00618
O=[N+]([O-])c1ccc(O)c2ncccc12 (10 µM)	-0.048
O=C(/C=C/c1cccc(NC(=O)c2ccc(Cl)cc2)c1)c1ccc(O)c(CCCl)c1 (10 µM)	0.162
Cn1c(=O)[nH]c(=O)c2c1nc(CN1CCN(Cc3ccccc3)CC1)n2Cc1ccc(Cl)cc1 (10 µM)	0.00902
CCOC(=O)C1=C(CCl)NC(=O)NC1c1cccs1 (stereo not drawn) (10 µM)	0.0115
CC(=O)N(c1nc(/C=C/C(=O)c2ccc(O)c(CCCl)c2)cs1)c1cccc(C)c1C (10 µM)	-0.00281
COc1ccc2c(c1)CCCN(C(=O)C(C)Sc1ccccn1)C2 (stereo not drawn) (10 µM)	0.0903
CCOC(=O)c1c(-c2ccccc2)oc2ccc(NS(=O)(=O)c3ccc(C)cc3)cc12 (10 µM)	0.0592
CC(=O)Nc1ccc(-c2csc(NC(=O)c3cnc4c(cnn4C(C)C)c3)n2)cc1 (10 µM)	-0.0463
O=C1CN(C(=O)c2cc(Cl)sc2Cl)c2ccccc2N1 (10 µM)	0.0611
CN1C(=O)C(Cc2c[nH]c3ccccc23)NC1=S (stereo not drawn) [necrostatin-1] (1 µM)	0.119
Nc1ncn([C@H]2C[C@H](O)[C@@H](CO)O2)c(=O)n1 [decitabine] (10 µM)	0.0765
Cc1cc(N2CCN(c3ccc(C(F)(F)F)cn3)CC2)nc(C(C)C)n1 (10 µM)	0.0883
CCc1noc(CC)c1CNC(C)c1cnc2ccsc2c1 (stereo not drawn) (10 µM)	0.0434
Cc1noc(C)c1CSc1nc2sccc2c(=O)n1-c1ccccc1 (1 µM)	0.212
CCOC(=O)C1=C(CCl)NC(=O)NC1c1ccccc1 (stereo not drawn) (1 µM)	-0.0404
C=CCNC1=C2C[C@@H](C)C[C@H](OC)[C@H](O)[C@@H](C)/C=C(\C)[C@H](OC(N)=O)[C@@H](OC)/C=C\C=C(/C)C(=O)NC(=CC1=O)C2=O (10 µM)	0.00237

5 consecutive entries already listed:
Structure (SMILES)	BRD4 median nuclear fluorescence intensity change (log2)
Nc1ncn([C@H]2C[C@H](O)[C@@H](CO)O2)c(=O)n1 [decitabine] (10 µM)	0.0765
Cc1cc(N2CCN(c3ccc(C(F)(F)F)cn3)CC2)nc(C(C)C)n1 (10 µM)	0.0883
CCc1noc(CC)c1CNC(C)c1cnc2ccsc2c1 (stereo not drawn) (10 µM)	0.0434
Cc1noc(C)c1CSc1nc2sccc2c(=O)n1-c1ccccc1 (1 µM)	0.212
CCOC(=O)C1=C(CCl)NC(=O)NC1c1ccccc1 (stereo not drawn) (1 µM)	-0.0404
